Reference: US5019647A (Merck & Co., Inc., priority 1988, dated 1991)
Some peptides are written in HELM: one residue between dots, names in brackets for other building blocks, links after the first $.

Assay: general procedure: peptide synthesis; dicyclohexylcarbodiimide / 1-hydroxybenzotriazole
Conditions: coupling step, reverse-phase HPLC

PEPTIDE1{[ac].H.W.A.V.G.H.[LeuolOEt]}$$$$V2.0
final HPLC purity: 97.5%
